# In PubChem BioAssay AID2551 (National Center for Advancing Translational Sciences (NCATS), 2010):
# By UniProt entry, the sequences of proteins in these tests, tags left out. Where a name states a change or a piece, a line headed by the entry shows the natural chain unless it says otherwise.
# UniProt P51450: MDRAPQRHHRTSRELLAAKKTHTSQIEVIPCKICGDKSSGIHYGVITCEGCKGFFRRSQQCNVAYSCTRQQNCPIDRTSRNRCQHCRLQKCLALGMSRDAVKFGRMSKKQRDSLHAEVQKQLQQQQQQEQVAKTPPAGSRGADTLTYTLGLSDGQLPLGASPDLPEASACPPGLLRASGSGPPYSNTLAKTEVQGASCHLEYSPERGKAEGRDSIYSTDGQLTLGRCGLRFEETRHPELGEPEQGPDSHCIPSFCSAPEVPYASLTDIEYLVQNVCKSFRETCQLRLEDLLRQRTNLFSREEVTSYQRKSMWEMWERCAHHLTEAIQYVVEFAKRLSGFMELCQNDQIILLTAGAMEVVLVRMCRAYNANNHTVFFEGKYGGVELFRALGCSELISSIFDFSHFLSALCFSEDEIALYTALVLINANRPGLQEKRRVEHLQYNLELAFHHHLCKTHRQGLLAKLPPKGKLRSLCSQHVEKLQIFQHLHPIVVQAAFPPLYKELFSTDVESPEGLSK
# The campaign covered roughly 310,000 compounds. About 17,000 (5.5%) were called active. The inconclusive results got no clear call from the source; some entries with a clear call stand among them for comparison. Calls come from the whole dose curve; as a rule, active = well fitted inhibition curve with a large enough effect; inconclusive = small, poorly fitted or top-dose-only effect, or effect the other way; inactive = no such curve, though single readings can be large or run the other way. A potency beside an inconclusive call is a rough fit, not a confirmed value.
# Molecular target: Nuclear receptor ROR-gamma (Mus musculus) (UniProt P51450)
# Assay: qHTS for inhibitors of ROR gamma transcriptional activity; note: nearly all actives have a fitted effect of over 60% in size
# Settings: Drosophila S2 Gal4-RORgamma UAS-luciferase reporter, 20 h; activity change, negative = inhibition: at 53.6 µM (top of the series)
# Outline: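 In this cell-based reporter format, copper sulfate (700 uM final) drives Gal4–ROR gamma fusion expression from a metallothionein promoter in Drosophila Schneider cells; compounds preincubated 1 hr, reporter read after 20 hr at ambient temperature.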
# % is set by controls: 0 for no effect and ±100 for the full control effect; potency is the fitted concentration of half-maximal effect.
SMILES,Potency,"activity change, negative = inhibition"
O=[N+]([O-])c1ccccc1/C=N/Nc1nc(N2CCCC2)nc(N2CCCC2)n1,active: 12.6 µM,–
Cc1nn(Cc2ccccc2)c(C)c1/C=N/NC(=O)CNc1cccc(C(F)(F)F)c1,"inconclusive: 25.1 µM [activator, single point]",–
COc1ccc(-c2cc(C(F)(F)F)n3nc(C(=O)N4CCCC4)cc3n2)cc1,–,inactive: -5.24%
COc1ccc(C2c3ccc4ccccc4c3Oc3ncn(CCO)c(=N)c32)cc1OC (configuration not stated),"inconclusive: 17.8 µM [inhibitor, single point]",–
CN1CCS/C1=C/C=C1/SC(=S)N(Cc2ccccc2)C1=O,–,inactive: 7.68%
CN(C)c1ccc(CNCCC(Cc2ccccc2)c2ccco2)cc1 (configuration not stated),"inconclusive: 35.5 µM [inhibitor, single point]",–
Cc1nc2ccc(NC(=O)COc3ccccc3F)cc2s1,–,inactive: 3.03%
CCOC(=O)c1c(C)[nH]c(-c2csc(C)n2)c1C,–,inactive: 13%
O=C(c1ccc(S(=O)(=O)c2ccc(F)cc2)c([N+](=O)[O-])c1)N1CCCCCC1,"inconclusive: 14.1 µM [inhibitor, single point]",–
CCc1nc2sc3c(=O)n(N)cnc3c2c2c1COC(C)(C)C2,–,inactive: 16.5%
COc1ccccc1CNC(=O)/C=C/c1ccc(S(=O)(=O)NCc2ccco2)cc1,"inconclusive: 25.1 µM [activator, single point]",–
CCOc1ccc(CO[C@@H]2O[C@H](CO)[C@@H](O)[C@H](O)[C@H]2NC(C)=O)cc1OC,–,inactive: 9.11%
NCC12CC3CC(C1)CC(c1ccc(Cl)cc1)(C3)C2,"inconclusive: 17.8 µM [inhibitor, single point]",–
CCCn1c(=O)cc(N)n(-c2ccc(OC(F)(F)F)cc2)c1=O,–,inactive: -2.11%
CC(=O)N1CCN(CC(=O)Nc2ccc([N+](=O)[O-])cc2Br)CC1,"inconclusive: 0.447 µM [inhibitor, single point]",–
O=C(Nc1ccccc1)C1CCCN(C(=O)c2ccc(Cl)cc2)C1 (configuration not stated),–,inactive: 18%
N/C(=N\NC(=O)c1ccc(Cl)cc1)c1cnccn1,"inconclusive: 14.1 µM [inhibitor, single point]",–
CS(=O)(=O)N1CCc2cc(C(=O)Nc3ccc(O)cc3)ccc21,"inconclusive: 2.82 µM [activator, partial curve]",–
NC(=O)c1c(-c2ccc(Cl)cc2Cl)csc1NC(=O)Cc1ccccc1,"inconclusive: 3.16 µM [activator, partial curve]",–
Cc1nnc(NC(=O)c2c(-c3ccccc3)noc2C)s1,"inconclusive: 20 µM [inhibitor, partial curve]",–
O=C(CNC(=S)NC(=O)C1CCCCC1)c1ccccc1,active: 7.94 µM,–
Cc1cc(/C=N/NC(=O)c2cccc([N+](=O)[O-])c2)c(C)n1-c1ccc(Cl)cc1Cl,active: 1.78 µM,–
Cc1cc(OCCCCN2C(=O)NC(C)(C)C2=O)ccc1[N+](=O)[O-],"inconclusive: 35.5 µM [inhibitor, single point]",–
O=C(Cc1cccc2ccccc12)NCCC1=CCCCC1,–,inactive: 11.1% [at 10 µM]

SMILES,Potency,"activity change, negative = inhibition"
CCc1ccccc1NC(=O)CCNC(=O)Cn1ccc2ccccc2c1=O,"inconclusive: 11.2 µM [activator, partial curve]",–
O=C(Nc1ccc(OC(F)(F)F)cc1)N1CCN(c2ccnc3cc(Cl)ccc23)CC1,"inconclusive: 35.5 µM [inhibitor, single point]",–
O=[N+]([O-])c1ccc(O)c(-c2cc(C(F)(F)F)nc(-c3ccccc3)n2)c1,active: 1.12 µM,–
CCCCN1CCC2C=CCC(C(=O)O)C2C1=O (configuration not stated),"inconclusive: 14.1 µM [inhibitor, single point]",–
Cc1ccc(NC(=O)OCCNC(=O)OC(C)C)cc1,"inconclusive: 3.16 µM [activator, partial curve]",–
Cc1ccc(/C(N)=N/OC(=O)c2ccc(C)cc2Cl)cc1,active: 4.47 µM,–
COc1cc(SC)ccc1C(=O)Nc1ccc2ncccc2c1,"inconclusive: 35.5 µM [inhibitor, single point]",–
COCCn1c(SCC(=O)N2CC(C)OC(C)C2)nc2c([nH]c3ccccc32)c1=O (configuration not stated),–,inactive: -15.2%
CSc1nnc(-c2ccccc2N=Cc2c(C)[nH]n(-c3ccccc3)c2=O)c(=O)[nH]1,"inconclusive: 15.8 µM [activator, single point]",–
CCNC(=O)NC(=O)C(C)OC(=O)c1ccc(SC)cc1OC (configuration not stated),"inconclusive: 35.5 µM [activator, single point]",–
COc1ccc(/C=C2\SC(=Nc3ccccc3OC)NC2=O)cc1,"inconclusive: 12.6 µM [inhibitor, single point]",–
Clc1nc2sccn2c1/C=N/n1cnc2ccccc21,"inconclusive: 7.08 µM [inhibitor, partial curve]",–
CN1C=CC(=C2C(=O)c3ccccc3C2=O)C=C1,"inconclusive: 35.5 µM [inhibitor, single point]",–
O=C(NCCn1cc(SCc2ccccc2)c2ccccc21)c1c(F)cccc1F,"inconclusive: 31.6 µM [activator, single point]",–
CC(C)CC1NC(=S)N(Cc2ccccc2)C1=O (configuration not stated),"inconclusive: 20 µM [inhibitor, single point]",–
COc1ccc(-n2nnc3c(=O)n(CC(=O)Nc4ccc5c(c4)OCCO5)cnc32)cc1OC,–,inactive: -42.4%
Cc1ccccc1-n1c(C)nnc1SCc1nc2ccccc2s1,"inconclusive: 7.08 µM [activator, full curve, poor fit]",–
Cn1c(=O)[nH]c(=O)c2c1nc(NCCCO)n2Cc1ccc(F)cc1,"inconclusive: 3.16 µM [inhibitor, single point]",–
COc1ccc(-c2c3c([nH]c(=S)c2C#N)CCC3)cc1,–,inactive: -100%
O=C(Nc1ccn(Cc2c(F)c(F)cc(F)c2F)n1)c1ccc(COc2ccccc2Cl)cc1,"inconclusive: 15.8 µM [activator, single point]",–
CC(=O)Nc1nc(=O)c2ccccc2s1,"inconclusive: 28.2 µM [inhibitor, single point]",–
COc1nc(C)ccc1-c1noc(-c2ccncc2)n1,–,inactive: 14.1%
CC(C)N1CCc2c(sc(NC(=O)CCS(=O)(=O)c3ccccc3)c2C#N)C1,–,inactive: 2.06%
Cc1c(CN(C)C)c2c(n1Cc1ccccc1)C(=O)c1ccc(Br)cc1-2,"inconclusive: 35.5 µM [inhibitor, single point]",–

SMILES,Potency,"activity change, negative = inhibition"
CCC1=NN2C(=N)/C(=C\c3cccn3-c3ccc(Cl)cc3)C(=O)N=C2S1,"inconclusive: 3.98 µM [inhibitor, full curve, poor fit]",–
CC(C)(CO)NCc1ccccc1OCC(=O)Nc1ccccc1,"inconclusive: 11.2 µM [activator, partial curve]",–
C=C(C)C1Cc2cc3ccc(=O)oc3cc2O1 (configuration not stated),"inconclusive: 0.0224 µM [activator, full curve, poor fit]",–
COC(=O)Cc1ccc(NC(=S)Nc2ccccn2)cc1,active: 5.01 µM,–
COCCNc1nc(SCC(=O)N2CCN(c3ccccc3)CC2)nc2ccccc12,"inconclusive: 12.6 µM [activator, single point]",–
FC(F)(F)c1cccc(N2CCN(c3nnnn3-c3ccccc3)CC2)c1,"inconclusive: 1.58 µM [activator, partial curve]",–
CCS(=O)(=O)c1nc(S(=O)(=O)c2ccc(Cl)cc2)c(N2CCN(C)CC2)s1,–,inactive: -0.965%
O=C(COC(=O)c1c2c(nc3ccccc13)/C(=C\c1cccs1)CCC2)Nc1ccccc1,"inconclusive: 35.5 µM [inhibitor, single point]",–
Nc1ccc(-n2cc(-c3ccccc3)[nH]c2=S)cc1,active: 8.91 µM,–
COc1cc(Cl)c(C)cc1NC(=O)CSc1cc(Cl)ccc1Cl,–,inactive: -15.2%
COc1ccc(-c2nn(-c3ccccc3)cc2/C=N/NS(=O)(=O)c2ccccc2)cc1,"inconclusive: 22.4 µM [activator, single point]",–
O=C(Nc1nc2ccccc2[nH]1)c1cccc(F)c1,active: 5.62 µM,–
Cn1c(=O)c2cc(S(=O)(=O)NCCC(=O)N3CC=C(c4ccccc4)CC3)ccc2n(C)c1=O,–,inactive: 26.1%
CCOC(=O)c1c(C)[nH]c(C(=O)CSc2ccccc2)c1C,"inconclusive: 0.178 µM [activator, full curve, poor fit]",–
CCOc1cc(N2CCOCC2)c(OCC)cc1NC(=O)c1ccc(OC(C)C)cc1,–,inactive: -1.89%
Cc1ccc(S(=O)(=O)N2CCN(CC(=O)N/N=C\c3cccnc3)CC2)cc1,"inconclusive: 11.2 µM [inhibitor, partial curve]",–
CCC(CC)c1nnc(NC(=O)C2CC(=O)N(CCc3ccc(F)cc3)C2)s1 (configuration not stated),"inconclusive: 31.6 µM [inhibitor, single point]",–
CCc1ccc(/C=C2\SC(=S)N(CCCC(=O)Nc3ccccn3)C2=O)cc1,active: 0.282 µM,–
COC(=O)c1sccc1NC(=S)N(C)C1CCCCC1,"inconclusive: 25.1 µM [inhibitor, single point]",–
COc1cccc(N2CCN(C(=O)c3ccc4nc(N5CCC(C)CC5)sc4c3)CC2)c1,active: 12.6 µM,–
Cc1nnc(NC(=O)c2nn(CC(C)C)c(=O)c3ccccc23)s1,"inconclusive: 15.8 µM [inhibitor, single point]",–
Fc1ccccc1NC(=S)N(CCN1CCCCC1)Cc1ccco1,"inconclusive: 15.8 µM [inhibitor, single point]",–
CC1CCN(S(=O)(=O)c2ccc3c(c2)N(C)C(=O)CC(=O)N3C)CC1,–,inactive: -25.5%
COc1ccc(N2CSC3=C(C#N)C(c4ccc(OC)c(OC)c4)CC(=O)N3C2)c(OC)c1 (configuration not stated),"inconclusive: 35.5 µM [inhibitor, single point]",–

# Individual results from the entries so far:
# CN(C)c1ccc(CNCCC(Cc2ccccc2)c2ccco2)cc1 (configuration not stated) – Potency: inconclusive: 35.5 µM [inhibitor, single point]
# COc1ccc(-c2nn(-c3ccccc3)cc2/C=N/NS(=O)(=O)c2ccccc2)cc1 – Potency: inconclusive: 22.4 µM [activator, single point]
# CCNC(=O)NC(=O)C(C)OC(=O)c1ccc(SC)cc1OC (configuration not stated) – Potency: inconclusive: 35.5 µM [activator, single point]
# COc1ccc(-c2cc(C(F)(F)F)n3nc(C(=O)N4CCCC4)cc3n2)cc1 – activity change, negative = inhibition: inactive: -5.24%
# CN1CCS/C1=C/C=C1/SC(=S)N(Cc2ccccc2)C1=O – activity change, negative = inhibition: inactive: 7.68%
